Reference: US20080103086A1, “METHODS FOR THE TREATMENT OF DISEASES ASSOCIATED WITH THE SECRETION OF HMGB1” (priority 2006, published 2008)
These are yes or no findings as the source states them, for the method shown. In cells and extracts the contact can be indirect. Some binding calls cover weakened binding; strength is not graded here.

Chains of the proteins cited; added tags and fusions are not shown.
UniProt P52294: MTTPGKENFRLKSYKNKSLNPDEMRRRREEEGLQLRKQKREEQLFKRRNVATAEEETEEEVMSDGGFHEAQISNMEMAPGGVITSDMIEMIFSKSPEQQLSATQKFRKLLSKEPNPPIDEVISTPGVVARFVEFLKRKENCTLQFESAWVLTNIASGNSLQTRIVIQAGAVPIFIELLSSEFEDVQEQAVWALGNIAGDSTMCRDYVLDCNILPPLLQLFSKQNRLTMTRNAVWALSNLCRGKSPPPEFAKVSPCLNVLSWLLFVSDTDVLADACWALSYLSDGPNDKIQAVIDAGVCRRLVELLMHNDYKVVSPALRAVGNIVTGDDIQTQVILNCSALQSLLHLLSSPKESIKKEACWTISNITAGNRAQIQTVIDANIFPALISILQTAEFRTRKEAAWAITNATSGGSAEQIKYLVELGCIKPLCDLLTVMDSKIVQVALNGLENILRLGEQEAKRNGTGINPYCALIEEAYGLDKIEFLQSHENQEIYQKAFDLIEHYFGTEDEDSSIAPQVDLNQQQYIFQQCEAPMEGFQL
UniProt P09429: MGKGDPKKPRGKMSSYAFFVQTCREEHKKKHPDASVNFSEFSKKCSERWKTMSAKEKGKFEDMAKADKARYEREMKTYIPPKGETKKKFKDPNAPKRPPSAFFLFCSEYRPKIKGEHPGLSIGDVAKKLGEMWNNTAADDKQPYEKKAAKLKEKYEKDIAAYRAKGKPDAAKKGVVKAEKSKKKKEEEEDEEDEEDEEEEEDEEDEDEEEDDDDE

Legend:
[1] = molecular target: T1, GST-KAP-α1 fusion protein (human, UniProt P52294 1-538); experiment: GST pull-down with purified recombinant proteins, anti-His blot
T1 construct: Produced in E. coli BL21, immobilized on glutathione-Sepharose 4B beads; the primers start at the ATG of the coding region; not shown: glutathione S-transferase (GST) tag encoded by vector pGEX-4T-1 (Pharmacia)

Flag-tagged KAP-α1 = molecular target: T2, Flag-tagged KAP-α1 (human, UniProt P52294 1-538); experiment: co-immunoprecipitation from co-transfected RAW 264.7 cells (anti-GFP and anti-Flag), Western blot
T2 construct: Expressed in co-transfected RAW 264.7 cells; used in co-immunoprecipitation; also called FLAG-KAP-α1; not shown: Flag tag of vector pCMV-Tag2 (Stratagene)
Method: To observe the binding of KAP protein to each mutant HMGB1 in the cells, Flag-tagged KAP-α1 and each mutant HMGB1-GFP plasmid were co-transfected into RAW 264.7 cells. Cell homogenates of transfected RAW 264.7 cells were harvested and incubated with mouse anti-Flag (M2, Sigma) and mouse anti-GFP (Santa Cruz) at 4° C. overnight. Immune complexes were collected and the membranes were blotted with anti-Flag and anti-GFP, respectively. The reciprocal experiment was also performed. GST was used as a negative control. And to test the direct binding of HMGB1 to KAP-α1, GST pull-down assay was performed as described above.
To observe the effect of phosphorylation in both NLS regions of HMGB1 on the binding to KAP-α1 and on the subcellular localization of HMGB1 in the transfected cells, a number of site-directed mutations in six serines of NLS1 and NLS2 were generated using a HMGB1-GFP fusion construct plasmid (FIG. 5A). Serines 35, 39, 42, 46, 53 within or close to NLS1 and serine 181 at NLS2 were alternatively or totally mutated into alanine or glutamic acid. […] RAW 264.7 cells were co-transfected with a Flag-tagged KAP-α1 plasmid and each mutant HMGB1-GFP plasmid, and immunoprecipitates using anti-GFP (FIG. 5B) or anti-Flag (FIG. 5C) were analyzed with anti-Flag for KAP-α1 or anti-GFP for HMGB1.

| binding [1] | binding (Flag-tagged KAP-α1) | Substance |
| --- | --- | --- |
| binds | – | six His-tagged wild type HMGB1 (from UniProt P09429 1-215) |
| – | binds | wild-type HMGB1-GFP (from UniProt P09429 1-215) |
